According to paper PMC9402713, “Structural analysis of Red1 as a conserved scaffold of the RNA-targeting MTREC/PAXT complex” (Nature Communications, 2022):
Results are given in words; binding and its absence hold for the method and conditions named. For some assays here: Binding can be weak; no strength is given. For some assays here: In cells and extracts the contact can be indirect. For some assays here: Tags and fused reporters may be left off the sequences shown. Blank lines part the entries; values can stand above or below the molecule they belong to.

Assays:
Strep-Ars2 107-527 = biological target: T1, Strep-Ars2 107-527 (S. pombe, UniProt O94326 107-527); assay: pull-down; Strep-tag pull-down: Ni-purified Strep-Ars2 107-527 held on Strep-Tactin XT, Ni-purified His-MBP-Red1 added; 20 mM Tris pH 8, 100 mM NaCl; eluted with 50 mM D-biotin; both purified
T1 construct: vector pETM41; source: E. coli BL21Star (DE3), purified (Ni^2+ chelating Sepharose); not shown: Strep-tag, C-terminal, kept
T1 sequence (looked up): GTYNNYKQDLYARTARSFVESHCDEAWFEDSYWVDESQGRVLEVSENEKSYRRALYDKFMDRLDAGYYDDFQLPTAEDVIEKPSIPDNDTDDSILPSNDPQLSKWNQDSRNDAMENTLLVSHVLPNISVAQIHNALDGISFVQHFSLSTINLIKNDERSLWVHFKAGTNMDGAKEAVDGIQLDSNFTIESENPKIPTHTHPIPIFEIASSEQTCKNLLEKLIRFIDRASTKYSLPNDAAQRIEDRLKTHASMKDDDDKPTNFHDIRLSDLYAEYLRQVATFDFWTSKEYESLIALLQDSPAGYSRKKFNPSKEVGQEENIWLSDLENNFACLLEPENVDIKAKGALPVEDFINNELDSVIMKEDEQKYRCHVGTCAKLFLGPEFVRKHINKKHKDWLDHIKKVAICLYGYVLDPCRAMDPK

Red1-TAP (S. pombe) = biological target: T2, Red1-TAP (S. pombe) (UniProt Q9UTR8); assay: co-IP; soluble extracts of S. pombe grown in minimal medium; Red1-TAP held on IgG Sepharose, 2 h at 4 °C, 150 mM NaCl, 0.2% NP-40; western blot
T2 sequence: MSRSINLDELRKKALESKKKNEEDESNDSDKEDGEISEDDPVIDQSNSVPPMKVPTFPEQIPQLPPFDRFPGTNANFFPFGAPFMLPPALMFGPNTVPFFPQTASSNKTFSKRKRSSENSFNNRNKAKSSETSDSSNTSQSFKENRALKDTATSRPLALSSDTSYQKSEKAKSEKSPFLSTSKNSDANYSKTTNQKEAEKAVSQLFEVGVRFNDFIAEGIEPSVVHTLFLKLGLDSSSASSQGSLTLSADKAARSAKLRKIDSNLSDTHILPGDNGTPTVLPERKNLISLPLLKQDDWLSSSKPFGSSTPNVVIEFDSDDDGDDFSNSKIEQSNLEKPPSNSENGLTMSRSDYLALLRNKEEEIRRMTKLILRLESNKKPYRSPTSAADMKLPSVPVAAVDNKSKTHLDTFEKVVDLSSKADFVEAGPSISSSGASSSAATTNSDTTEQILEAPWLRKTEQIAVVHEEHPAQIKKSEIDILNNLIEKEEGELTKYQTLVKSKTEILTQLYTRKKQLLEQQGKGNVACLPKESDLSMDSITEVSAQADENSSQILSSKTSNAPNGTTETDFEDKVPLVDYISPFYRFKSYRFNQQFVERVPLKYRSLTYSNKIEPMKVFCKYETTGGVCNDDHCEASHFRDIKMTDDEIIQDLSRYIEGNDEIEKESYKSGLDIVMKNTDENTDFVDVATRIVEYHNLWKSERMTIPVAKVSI

[1] = biological target: Strep-Iss10 1-45 (S. pombe); assay: pull-down; Strep-tag pull-down: His-MBP-Red1 and Strep-Iss10 co-expressed in E. coli, supernatant loaded on Strep-Tactin XT; 20 mM Tris pH 8, 100 mM NaCl, 5 mM β-mercaptoethanol; eluted with 50 mM D-biotin
[2] = biological target: Strep-Iss10 1-45 (S. pombe); assay: NMR structure; solution structure of the co-purified 13C,15N-labelled Red1 192-236 / Iss10 1-45 heterodimer, 298 K; both purified
Iss10-GFP (S. pombe) = assay: co-IP; reciprocal: S. pombe extracts treated with TEV protease to remove the protein A part of the TAP tag, Iss10-GFP held on GFP-Trap magnetic beads; western blot
[3] = biological target: Ars2 68-183,206-531 (S. pombe); assay: crystal structure; dimeric Ars2 68-183,206-531 at 8 mg/ml with a three-fold molar excess of Red1 20-40 peptide; hanging drop, 5 °C; 2.8 Å; both purified

binding (Strep-Ars2 107-527): no binding
Molecule: His-MBP-Red1 20-40 mutated at Asp33 (from UniProt Q9UTR8) (domain or fragment)

binding (Strep-Ars2 107-527): no binding
Molecule: His-MBP-Red1 20-40 mutated at Glu35 (from UniProt Q9UTR8) (domain or fragment)

binding (Strep-Ars2 107-527): no binding
Molecule: His-MBP-Red1 20-40 mutated at Ile36 (from UniProt Q9UTR8) (domain or fragment)

binding (Red1-TAP (S. pombe)): binds
Molecule: Iss10-GFP (S. pombe)

binding [1]: binds
B1: His-MBP-Red1 192-236 (domain or fragment, UniProt Q9UTR8 192-236)
chain: TTNQKEAEKAVSQLFEVGVRFNDFIAEGIEPSVVHTLFLKLGLDS

binding [2]: binds
B2: Red1 192-236, His-MBP tag cleaved (domain or fragment, UniProt Q9UTR8 192-236)
chain: B1 chain

binding (Iss10-GFP (S. pombe)): binds
B3: Red1-TAP (protein, UniProt Q9UTR8 1-712)
chain: T2 sequence

binding [3]: binds
B4: Red1 peptide 20-40 (peptide)
peptide: KNEEDESNDSDKEDGEISEDD
notes: Red1, S. pombe, residues 20-40 with the EDGEI motif; also called Red1^20–40 peptide; Red1 N-terminal peptide; source: synthetic peptide (PSL GMBH)
